Results on 1 molecule are retold here after paper PMC10277598.

These are yes or no findings as the source states them, for the method shown. Binding seen in cells or lysates may run through a third protein. A yes stands for co-enrichment or nearness to the bait. Other partners may have been found. Sequences can lack the tags named with a protein.

In this assay the target is T1, His6-tagged BarA (Escherichia coli) (UniProt P0AEC5).
T1 sequence: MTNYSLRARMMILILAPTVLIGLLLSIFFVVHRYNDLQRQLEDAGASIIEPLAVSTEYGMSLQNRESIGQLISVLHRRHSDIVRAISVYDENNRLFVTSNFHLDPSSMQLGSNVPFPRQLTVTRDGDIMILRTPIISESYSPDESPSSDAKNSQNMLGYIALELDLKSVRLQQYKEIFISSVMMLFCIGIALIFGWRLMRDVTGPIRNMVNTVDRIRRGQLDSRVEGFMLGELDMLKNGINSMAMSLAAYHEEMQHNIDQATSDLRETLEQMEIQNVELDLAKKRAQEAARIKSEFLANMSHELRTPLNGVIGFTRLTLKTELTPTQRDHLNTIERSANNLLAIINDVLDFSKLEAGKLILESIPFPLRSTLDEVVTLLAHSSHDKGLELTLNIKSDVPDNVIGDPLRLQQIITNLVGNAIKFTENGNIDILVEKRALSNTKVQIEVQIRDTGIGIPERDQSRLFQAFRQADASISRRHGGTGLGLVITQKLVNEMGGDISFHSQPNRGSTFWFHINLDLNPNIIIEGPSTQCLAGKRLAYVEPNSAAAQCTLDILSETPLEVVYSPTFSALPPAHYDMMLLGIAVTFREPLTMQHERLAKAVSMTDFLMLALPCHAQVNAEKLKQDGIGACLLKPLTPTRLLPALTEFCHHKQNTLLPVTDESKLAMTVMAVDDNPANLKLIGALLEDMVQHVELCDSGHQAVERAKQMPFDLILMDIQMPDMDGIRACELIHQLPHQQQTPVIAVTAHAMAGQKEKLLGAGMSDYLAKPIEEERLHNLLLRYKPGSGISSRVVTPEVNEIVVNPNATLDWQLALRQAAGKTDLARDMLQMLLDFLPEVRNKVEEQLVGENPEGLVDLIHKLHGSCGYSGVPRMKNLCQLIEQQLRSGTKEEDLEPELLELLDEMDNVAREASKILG
Briefly: affinity purification with mass spectrometry; in vivo cross-linking with 1% formaldehyde for 10 min at 37 °C; His6-BarA as bait purified under denaturing conditions (8 M urea) on Ni-NTA agarose; cross-links reversed; copurified proteins identified by LC-MS/MS; control strain without the His6-BarA plasmid.

B1: HflK (protein, UniProt P0ABC7 1-419)
chain: MAWNQPGNNGQDRDPWGSSKPGGNSEGNGNKGGRDQGPPDLDDIFRKLSKKLGGLGGGKGTGSGGGSSSQGPRPQLGGRVVTIAAAAIVIIWAASGFYTIKEAERGVVTRFGKFSHLVEPGLNWKPTFIDEVKPVNVEAVRELAASGVMLTSDENVVRVEMNVQYRVTNPEKYLYSVTSPDDSLRQATDSALRGVIGKYTMDRILTEGRTVIRSDTQRELEETIRPYDMGITLLDVNFQAARPPEEVKAAFDDAIAARENEQQYIREAEAYTNEVQPRANGQAQRILEEARAYKAQTILEAQGEVARFAKLLPEYKAAPEITRERLYIETMEKVLGNTRKVLVNDKGGNLMVLPLDQMLKGGNAPAAKSDNGASNLLRLPPASSSTTSGASNTSSTSQGDIMDQRRANAQRNDYQRQGE
As to B1, the binding entry is “binds”.
